The record followed here is the supplement of paper PMC9226226.

This test relates to Werner syndrome hMSCs (WRN-/-). The test is described as follows: relative cell density (fold change vs vehicle control); higher = more proliferation (geroprotective). As to conditions: concentration (umol/L): 1, 6 days.

“And” between values parts separate entries of the source, which are not always exact repeats. Identical values can stand only once. ± gives the standard deviation of the averaged measurements. The list shows a part of the results. Some well-known active drugs show little effect in this data set, so a weak value is uncertain.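 Human mesenchymal stem cells lacking the Werner syndrome gene, which age prematurely, were used. Automated live-cell imaging tracked growth across three biological repeats; the twenty drugs raising growth most relative to vehicle advanced, without a stated fixed cutoff.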

For the setting “vehicle: DMSO”, `C[C@H]1C[C@@H]2[C@H]([C@@H](O)C[C@@]3(C)[C@H]2CC[C@]3(O)C(=O)CO)[C@@]2(C)C=CC(=O)C=C12` returned a relative cell density of 0.84. Still for that read-out and setting: as for `COc1ccc(C2CNC(=O)C2)cc1OC1CCCC1` (stereo not given), the figure is 1.34 and 1.19; as for `O=C1OCCN1/N=C/c1ccc([N+](=O)[O-])o1`, 1.16; as for `CCOC(=O)[C@H](CCc1ccccc1)N[C@H]1CS[C@H](c2cccs2)CN(CC(=O)O)C1=O`, 0.869.

For the molecule `c1ccc([C@H]2CN3CCSC3=N2)cc1`, the relative cell density (vehicle: Water) was found to be 1.01 ± 0.15.

In turn, `CCC(=O)O[C@]1(C(=O)CCl)[C@@H](C)C[C@H]2[C@@H]3CCC4=CC(=O)C=C[C@]4(C)[C@@]3(F)[C@@H](O)C[C@@]21C` gave a relative cell density (vehicle: DMSO) of 1.09. On the same count and under the same terms, under `O=S(=O)(O)c1cc(O)ccc1O` stands 0.638. The molecule `Cc1c(O)c(=O)ccn1C` displayed a relative cell density (vehicle: Water) of 1.4.

`NNc1nncc2ccccc12` returned a relative cell density (vehicle: Water) of 0.786.

Take `CC(=O)OCC(CCn1cnc2cnc(N)nc21)COC(C)=O`: the relative cell density (vehicle: DMSO) turned out to be 1.39. Same read-out and setting: as for `C[C@H](CCC(=O)O)[C@H]1CC[C@H]2[C@@H]3[C@H](O)C[C@@H]4C[C@H](O)CC[C@]4(C)[C@H]3CC[C@]12C`, the figure is 1.29. On the same count and under the same terms, as for `Nc1cc(C(Cl)=C(Cl)Cl)c(S(N)(=O)=O)cc1S(N)(=O)=O`, the figure is 1.19.

Take `CC[C@H](C)C(=O)O[C@H]1CCC=C2C=C[C@H](C)[C@H](CC[C@@H]3C[C@@H](O)CC(=O)O3)[C@H]21`: the relative cell density (vehicle: DMSO) was determined as 1.02. Still for that read-out and setting: as for `C1CNCCN1`, the figure is 1.13.

With `O=c1oc2ccccc2c(O)c1Cc1c(O)c2ccccc2oc1=O`, where the note is “vehicle: DMSO”, the relative cell density was 1.17. Still for that read-out and setting: as for `CC(=O)[C@]1(O)Cc2c(O)c3c(c(O)c2[C@@H](O[C@H]2C[C@H](N)[C@H](O)[C@H](C)O2)C1)C(=O)c1ccccc1C3=O`, the figure is 0.0509. For `CC(/C=C1\SC(=S)N(CC(=O)O)C1=O)=C\c1ccccc1`, the relative cell density (vehicle: Water) is 0.833. Molecule `CN1CCN(CCCN2c3ccccc3Sc3ccc(Cl)cc32)CC1` registered a relative cell density (vehicle: DMSO) of 1.27. Still for that read-out and setting: as for `Cc1nc(=O)c2cc(CN(C)c3ccc(C(=O)N[C@@H](CCC(=O)O)C(=O)O)s3)ccc2[nH]1`, the figure is 1.4; as for `COCC[n+]1c2c(n(Cc3cnccn3)c1C)C(=O)c1ccccc1C2=O`, 0.231; as for `COc1ccc([C@]2(C#N)CC[C@@H](C(=O)O)CC2)cc1OC1CCCC1`, 1.32. The same measure, in the same setting: under `O=c1[nH]c(=O)n(C2CCCO2)cc1F` (stereo not given) stands 0.966. On the same count and under the same terms, as for `C[C@@H]1CCN(C(=O)CC#N)C[C@@H]1N(C)c1ncnc2[nH]ccc12`, the figure is 1.02; as for `CO[C@@]12[C@H](COC(N)=O)C3=C(C(=O)C(C)=C(N)C3=O)N1C[C@@H]1N[C@@H]12`, 0.605; as for `CC1=Nc2ccc(Cl)cc2S(=O)(=O)N1`, 1.46. For the molecule `CCCN(CCC)C(=O)C1=Cc2ccc(-c3ccc(C(=O)N4CCCC4)cc3)cc2N=C(N)C1`, the relative cell density (vehicle: DMSO) is 1.36.

Take `O=C(NCCO[N+](=O)[O-])c1cccnc1`: the relative cell density (vehicle: DMSO) was 1.29. On the same count and under the same terms, as for `C=C1/C(=C\C=C2/CCC[C@]3(C)[C@@H]([C@H](C)/C=C/[C@@H](O)C4CC4)CC[C@@H]23)C[C@@H](O)C[C@@H]1O`, the figure is 1.24; as for `Cc1ccc(Cl)c(Nc2ccccc2C(=O)O)c1Cl`, 0.94. Same read-out and setting: under `CCN1CCN(C(=O)N[C@@H](C(=O)N[C@@H]2C(=O)N3C(C(=O)O)=C(CSc4nnnn4C)CS[C@H]23)c2ccc(O)cc2)C(=O)C1=O` stands 0.89.

Turning to `CN(C)CCOc1ccc(/C(=C(/CCCl)c2ccccc2)c2ccccc2)cc1`, under “vehicle: DMSO”, the relative cell density was found to be 0.977. Same read-out and setting: as for `C[C@H]1C[C@H]2[C@@H]3CCC4=CC(=O)C=C[C@]4(C)[C@@]3(F)[C@@H](O)C[C@]2(C)[C@@]1(O)C(=O)CO`, the figure is 1.39; as for `CNC(=O)[C@H](Cc1c[nH]c2ccccc12)NC(=O)[C@@H](CC(=O)NO)CC(C)C`, 1.15; as for `CC(=O)Oc1c(C)c(C)c2c(c1C)CCC(C)(CCC[C@H](C)CCC[C@H](C)CCCC(C)C)O2` (stereo not given in full), 0.874. Still for that read-out and setting: under `Oc1ccc(OCc2ccccc2)cc1` stands 1.17. On the same count and under the same terms, under `CCCc1nc(C)c2c(=O)nc(-c3cc(S(=O)(=O)N4CCN(CC)CC4)ccc3OCC)[nH]n12` stands 0.928; under `COc1cc2nccc(Oc3ccc(NC(=O)C4(C(=O)Nc5ccc(F)cc5)CC4)cc3)c2cc1OC`, 0.912 and 1.73; under `O=C(O)/C=C/c1ccc(Cn2ccnc2)cc1`, 1.17 and 1.12. In the case of `COCCOC(=O)C1=C(C)NC(C)=C(C(=O)OC/C=C/c2ccccc2)C1c1cccc([N+](=O)[O-])c1` (stereo not given), the relative cell density (vehicle: DMSO) worked out at 0.864.

`CCOc1nc2cccc(C(=O)O)c2n1Cc1ccc(-c2ccccc2-c2noc(=O)[nH]2)cc1`: where the note is “vehicle: DMSO”, the relative cell density was determined as 1.09. As for `COc1cc(O)c(C(=O)Nc2nc(C(=O)NCCN(C(C)C)C(C)C)cs2)cc1OC`, the relative cell density (vehicle: DMSO) is 1.09 and 1.08. The same measure, in the same setting: under `CC(C)(Oc1ccc(C(=O)c2ccc(Cl)cc2)cc1)C(=O)O` stands 1.39; under `CC1(C)O[C@@H]2C[C@H]3[C@@H]4CCC5=CC(=O)C=C[C@]5(C)[C@@]4(F)[C@@H](O)C[C@]3(C)[C@]2(C(=O)CO)O1`, 1.08; under `Cc1cnc(NC(=O)C2=C(O)c3ccccc3S(=O)(=O)N2C)s1`, 1.12. Same read-out and setting: under `O=C(O)CCCc1ccccc1` stands 0.935; under `O=C(O)COC(=O)Cc1ccccc1Nc1c(Cl)cccc1Cl`, 1.3; under `OC1(c2ccc(Cl)c(C(F)(F)F)c2)CCN(CCCC(c2ccc(F)cc2)c2ccc(F)cc2)CC1`, 1.23. `C[C@@H]1C[C@H]2[C@@H]3CCC4=CC(=O)C=C[C@]4(C)[C@@]3(F)[C@@H](O)C[C@]2(C)[C@@]1(O)C(=O)CO` returned a relative cell density (vehicle: DMSO) of 0.968. Still for that read-out and setting: under `O=C1C2CC3CC1CC(O)(C3)C2` stands 1.05. `CCN1CCN(c2cc3c(cc2F)c(=O)c(C(=O)O)cn3C2CC2)CC1`: the relative cell density (vehicle: Water) came out at 1.1. With `Cc1nnc(NS(=O)(=O)c2ccc(N)cc2)s1`, under “vehicle: DMSO”, the relative cell density turned out to be 1.25.

`CC1Cc2ccccc2N1NC(=O)c1ccc(Cl)c(S(N)(=O)=O)c1` (stereo not given) registered a relative cell density (vehicle: DMSO) of 1.07. Molecule `CO/N=C(\C(=O)N[C@@H]1C(=O)N2C(C(=O)O)=C(Cn3ccc(=N)n3CCO)CS[C@H]12)c1csc(N)n1` gave a relative cell density (vehicle: Water) of 0.761. Regarding `CCC(=O)c1c(O)cc(O)cc1O`, for the setting “vehicle: DMSO”, the relative cell density was determined as 1.01. On the same count and under the same terms, under `CN1CCN(CCOc2cc(OC3CCOCC3)c3c(Nc4c(Cl)ccc5c4OCO5)ncnc3c2)CC1` stands 0.531; under `CO/N=C(\C(=O)N[C@@H]1C(=O)N2C(C(=O)O)=C(COC(N)=O)CS[C@H]12)c1ccco1`, 1.25. `O=C(NCC(O)CO)c1c(I)c(C(=O)NCC(O)CO)c(I)c(N(CCO)C(=O)CO)c1I` (stereo not given) displayed a relative cell density (vehicle: DMSO) of 1.26. The same measure, in the same setting: as for `Nc1ccc(S(=O)(=O)Nc2ccnn2-c2ccccc2)cc1`, the figure is 0.835; as for `CCCCCCCCCCCCCCCC(=O)O[C@@H]1[C@@H](O)[C@@H](O)[C@@H]([C@H](NC(=O)[C@@H]2C[C@@H](CCC)CN2C)[C@H](C)Cl)O[C@@H]1SC`, 1.16. As for `O=C([O-])[O-].[Na+].[Na+]`, the relative cell density (vehicle: Water) worked out at 1.12. On to `CC(=O)N1C[C@H](O)C[C@H]1C(=O)O`, for which the relative cell density (vehicle: DMSO) was found to be 0.968. Same read-out and setting: as for `C[C@H](CCC(=O)O)[C@H]1CC[C@H]2[C@@H]3CC[C@@H]4C[C@H](O)CC[C@]4(C)[C@H]3C[C@H](O)[C@]12C`, the figure is 1.08.

`Nc1ccc2cc3ccc(N)cc3nc2c1` came in with a relative cell density (vehicle: Water) of 0.103.

As for `O=C1CC2(CCCC2)CC(=O)N1CCCCN1CCN(c2ncccn2)CC1`, the relative cell density (vehicle: DMSO) was 1.01.

Where the note is “vehicle: DMSO”, `CC[C@H]1OC(=O)[C@H](C)[C@@H](O[C@H]2C[C@@](C)(OC)[C@@H](O)[C@H](C)O2)[C@H](C)[C@@H](O[C@@H]2O[C@H](C)C[C@H](N(C)C)[C@H]2O)[C@](C)(O)C[C@@H](C)[C@@H]2N[C@@H](COCCOC)O[C@H]([C@H]2C)[C@]1(C)O` returned a relative cell density of 1.02. The same measure, in the same setting: as for `N#Cc1cc(-c2n[nH]c(-c3ccncc3)n2)ccn1`, the figure is 1.01; as for `Cc1c(F)cc(C(=O)NC2CC2)cc1-c1ccc(C(=O)NCC(C)(C)C)cn1`, 1.21. On the same count and under the same terms, under `COC(=O)N(C)c1c(N)nc(-c2nn(Cc3ccccc3F)c3ncccc23)nc1N` stands 1.05. Molecule `C[C@H](O)C(=O)Nc1c(I)c(C(=O)NC(CO)CO)c(I)c(C(=O)NC(CO)CO)c1I` gave a relative cell density (vehicle: DMSO) of 1.25. Same read-out and setting: under `CC(=O)OCC(COC(C)=O)OC(C)=O` stands 0.916; under `CC(=O)OCC=C(C)C=CC=C(C)C=CC1=C(C)CCCC1(C)C`, 0.982. For the molecule `c1cnc2cc3c(cc2n1)[C@@H]1CNC[C@H]3C1`, the relative cell density (vehicle: Water) came to 1.04. Molecule `NC(=O)N1c2ccccc2C=Cc2ccccc21` registered a relative cell density (vehicle: DMSO) of 0.671.

For `Clc1ccc(C(Cn2ccnc2)OCc2c(Cl)cccc2Cl)c(Cl)c1` (stereo not given), under “vehicle: DMSO”, the relative cell density was 1.1. As to `NCCC[C@H](N)C(=O)O`, the relative cell density (vehicle: Water) stood at 0.912.

`NC(CO)(CO)CO` came in with a relative cell density (vehicle: DMSO) of 1.18. As to `O=C(CCCCCCNC(=O)c1cnc(N(c2ccccc2)c2ccccc2)nc1)NO`, the relative cell density (vehicle: DMSO) turned out to be 0.609. Same read-out and setting: under `C=C1CC[C@H](O)C/C1=C/C=C1\CCC[C@]2(C)[C@@H]([C@H](C)CCCC(C)(C)O)CC[C@@H]12` stands 1.16; under `CC(C)[C@H]1C(=O)N[C@@H](CCCN=C(N)N)C(=O)NCC(=O)N[C@@H](CC(=O)O)C(=O)N[C@H](Cc2ccccc2)C(=O)N1C`, 1.15. In turn, `Nc1nc(=O)c2nc(CNc3ccc(C(=O)N[C@@H](CCC(=O)O)C(=O)O)cc3)cnc2[nH]1` showed a relative cell density (vehicle: Water) of 1.04. Take `Nc1nc(F)nc2c1ncn2[C@@H]1O[C@H](CO)[C@@H](O)[C@@H]1O`: for the setting “vehicle: DMSO”, the relative cell density stood at 1.31. Still for that read-out and setting: as for `CC[C@H]1OC(=O)[C@H](C)[C@@H](O[C@H]2C[C@@](C)(OC)[C@@H](O)[C@H](C)O2)[C@H](C)[C@@H](O[C@@H]2O[C@H](C)C[C@H](N(C)C)[C@H]2O)[C@](C)(O)C[C@@H](C)/C(=N\OCOCCOC)[C@H](C)[C@@H](O)[C@]1(C)O`, the figure is 1.09; as for `CC(C)NCC(O)COc1ccc(COCCOC(C)C)cc1` (stereo not given), 1.04; as for `O=C1CN2Cc3c(ccc(Cl)c3Cl)N=C2N1`, 0.696. Same read-out and setting: under `Nc1nc(Cl)nc2c1ncn2[C@@H]1O[C@H](CO)[C@@H](O)[C@@H]1F` stands 1.06. On the same count and under the same terms, as for `CC(C)C(=O)OCC(=O)[C@@]12O[C@H](C3CCCCC3)O[C@@H]1C[C@H]1[C@@H]3CCC4=CC(=O)C=C[C@]4(C)[C@H]3[C@@H](O)C[C@@]12C`, the figure is 1.25.

Under “vehicle: DMSO”, `CN1CC[C@H](c2c(O)cc(O)c3c(=O)cc(-c4ccccc4Cl)oc23)[C@H](O)C1` displayed a relative cell density of 0.0334. Same read-out and setting: as for `COc1cc(S(=O)(=O)O)ccc1O`, the figure is 1.08; as for `CC(C)(C)NC[C@H](O)COc1nsnc1N1CCOCC1`, 1.01. The same measure, in the same setting: under `Cc1ccc(C(=O)Nc2ccc(CN3CCN(C)CC3)c(C(F)(F)F)c2)cc1C#Cc1cnc2cccnn12` stands 0.294.
